From doi:10.1101/161430v2 (biorxiv, 2019)
Structures were worked out from names or drawings and are uncertain.

Key:
Format in all cases: biochemical
[1] = biological target: human AChE (acetylcholinesterase) (Homo sapiens, UniProt P22303); experiment: Ellman assay, […] nm; conditions: 100 uM acetylthiocholine, 300 uM DTNB, pH 7.5
[2] = biological target: human carboxylesterase 1 (CES1, hCES1) (Homo sapiens, UniProt P23141); experiment: competition with 4-nitrophenyl acetate, […] nm; conditions: 200 uM 4-nitrophenyl acetate, pH 7.5
[3] = biological target: human carboxylesterase 2 (CES2, hCES2) (Homo sapiens, UniProt O00748); experiment: competition with 4-nitrophenyl acetate, […] nm; conditions: 100 uM 4-nitrophenyl acetate, pH 7.5

OB(O)c1cc(Br)cc(OCc2ccccc2)c1
Ki [1]: 14000 nM | Ki [2]: 1.1 nM | Ki [3]: 2.2 nM
